Measurements as given in the supplement of paper PMC8728848.
The other results are listed elsewhere or left out.

Tests used:
Test in all cases: glycan array binding signal (z-score within array); higher = stronger binding
Settings in all cases: glycan notation: IUPAC condensed, linker removed
[1] = target: GlcNAc(b1-4)GlcNAc(b1-4)GlcNAc(b1-4)GlcNAc(b1-4)GlcNAc(b1-4)GlcNAc
Outline: (§1)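 Glycan array data were curated from 3228 arrays in the Consortium for Functional Glycomics database and kept only where the protein sequence was available. Glycan names were converted to IUPAC-condensed notation, and columns mapping to the same glycan were averaged. The binding signal is a within-array Z-score, averaged across arrays of the same protein sequence at different concentrations or buffers and across linkers. Negative Z-scores can be read as non-binding.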

[2] = target: GlcNAc(b1-4)[GlcNAc(b1-6)]GalNAc
Outline: as §1

[3] = target: GlcNAc(b1-6)Gal(b1-4)GlcNAc
Outline: as §1

GlcNAc(b1-6)GalNAc = target: GlcNAc(b1-6)GalNAc
Outline: as §1

[4] = target: GlcNAc6S(b1-3)Gal(b1-4)GlcNAc
Outline: as §1

Kdn(a2-3)Gal(b1-3)GalNAc = target: Kdn(a2-3)Gal(b1-3)GalNAc
Outline: as §1

Kdn(a2-3)Gal(b1-3)GlcNAc = target: Kdn(a2-3)Gal(b1-3)GlcNAc
Outline: as §1

Kdn(a2-3)Gal(b1-4)Glc = target: Kdn(a2-3)Gal(b1-4)Glc
Outline: as §1

Kdn(a2-3)Gal(b1-4)GlcNAc = target: Kdn(a2-3)Gal(b1-4)GlcNAc
Outline: as §1

[5] = target: Kdn(a2-3)Gal(b1-4)[Fuc(a1-3)]GlcNAc
Outline: as §1

Kdn(a2-6)Gal(b1-4)GlcNAc = target: Kdn(a2-6)Gal(b1-4)GlcNAc
Outline: as §1

[6] = target: Man(a1-2)Man(a1-2)Man(a1-3)Man
Outline: as §1

[7] = target: Man(a1-2)Man(a1-2)Man(a1-6)[Man(a1-3)]Man
Outline: as §1

Man(a1-2)Man(a1-3)Man = target: Man(a1-2)Man(a1-3)Man
Outline: as §1

[8] = target: Man(a1-2)Man(a1-3)[Man(a1-2)Man(a1-6)]Man
Outline: as §1

[9] = target: Man(a1-2)Man(a1-3)[Man(a1-2)Man(a1-6)]Man(a1-6)[Man(a1-2)Man(a1-2)Man(a1-3)]Man
Outline: as §1

[10] = target: Man(a1-2)Man(a1-3)[Man(a1-2)Man(a1-6)]Man(a1-6)[Man(a1-2)Man(a1-2)Man(a1-3)]Man(b1-4)GlcNAc(b1-4)GlcNAc
Outline: as §1

[11] = target: Man(a1-2)Man(a1-3)[Man(a1-6)]Man(a1-6)[Man(a1-2)Man(a1-3)]Man(b1-4)GlcNAc(b1-4)GlcNAc
Outline: as §1

[12] = target: Man(a1-2)Man(a1-6)[Man(a1-3)]Man(a1-6)[Man(a1-2)Man(a1-2)Man(a1-3)]Man
Outline: as §1

[13] = target: Man(a1-2)Man(a1-6)[Man(a1-3)]Man(a1-6)[Man(a1-2)Man(a1-2)Man(a1-3)]Man(b1-4)GlcNAc(b1-4)GlcNAc
Outline: as §1

Man(a1-3)[Man(a1-6)]Man = target: Man(a1-3)[Man(a1-6)]Man
Outline: as §1

[14] = target: Man(a1-3)[Man(a1-6)]Man(a1-6)[Man(a1-2)Man(a1-3)]Man(b1-4)GlcNAc(b1-4)GlcNAc
Outline: as §1

[15] = target: Man(a1-3)[Man(a1-6)]Man(a1-6)[Man(a1-3)]Man
Outline: as §1

[16] = target: Man(a1-3)[Man(a1-6)]Man(a1-6)[Man(a1-3)]Man(b1-4)GlcNAc(b1-4)GlcNAc
Outline: as §1

[17] = target: Man(a1-3)[Man(a1-6)]Man(b1-4)GlcNAc(b1-4)GlcNAc
Outline: as §1

[18] = target: Man(a1-3)[Man(a1-6)]Man(b1-4)GlcNAc(b1-4)[Fuc(a1-6)]GlcNAc
Outline: as §1

Man(a1-6)Man = target: Man(a1-6)Man
Outline: as §1

Man(b1-4)GlcNAc = target: Man(b1-4)GlcNAc
Outline: as §1

MurNAc(b1-4)GlcNAc = target: MurNAc(b1-4)GlcNAc
Outline: as §1

Neu5Ac(a2-3)Gal = target: Neu5Ac(a2-3)Gal
Outline: as §1

[19] = target: Neu5Ac(a2-3)Gal(b1-3)GalNAc
Outline: as §1

[20] = target: Neu5Ac(a2-3)Gal(b1-3)GalNAc(b1-3)Gal(a1-4)Gal(b1-4)Glc
Outline: as §1

[21] = target: Neu5Ac(a2-3)Gal(b1-3)GalNAc(b1-4)[Neu5Ac(a2-3)]Gal(b1-4)Glc
Outline: as §1

[22] = target: Neu5Ac(a2-3)Gal(b1-3)GalNAc(b1-4)[Neu5Ac(a2-8)Neu5Ac(a2-3)]Gal(b1-4)Glc
Outline: as §1

[23] = target: Neu5Ac(a2-3)Gal(b1-3)GalNAc6S
Outline: as §1

[24] = target: Neu5Ac(a2-3)Gal(b1-3)GlcNAc
Outline: as §1

[25] = target: Neu5Ac(a2-3)Gal(b1-3)GlcNAc(b1-2)Man
Outline: as §1

B1: SfaEH (Escherichia coli), Q1RDG5 (protein)
chain: LLCRNNQTGQVFNSGDTSFRVNVSPVVQYDKSISVLDLSQLVSCQNEDSTGQNYDYLKILKGSGFSPALDTKTYGRLDFTSRPTGYARQLPLQFDLQVTEAFYQYGVWKPFPAKLYLYPAPGVFGKVINNGDLLATLYVNKFSTKGQEAGERNFTWRFYATNDVYIQTGTCRVSSNNVKVDLPSYPGGPVTVPLTVRCDQTQSVSYTLSGPVTGSGNTVFANTAASGSGGVGIQLSDNVGPVPAGQPRSLGQVGSSPVSLGLKASYALTGQASPTPGAVQSVINVTFSYN
Q: Which “glycan array binding signal (z-score)” value [1] does the source give for B1 here?
A: The value was -0.573.

Q: What about the “glycan array binding signal (z-score)” value [2] of the same binder?
A: The value was -0.105.

Q: What about the “glycan array binding signal (z-score)” value [3] of the same binder?
A: The value was 0.143.

Q: What about the “glycan array binding signal (z-score)” value (GlcNAc(b1-6)GalNAc) of the same binder?
A: Its value is -0.528.

Q: What about the “glycan array binding signal (z-score)” value [4] of the same binder?
A: The value was 0.278.

Q: What about the “glycan array binding signal (z-score)” value (Kdn(a2-3)Gal(b1-3)GalNAc) of the same binder?
A: The value was -0.452.

Q: What about the “glycan array binding signal (z-score)” value (Kdn(a2-3)Gal(b1-3)GlcNAc) of the same binder?
A: Its value is 0.537.

Q: What about the “glycan array binding signal (z-score)” value (Kdn(a2-3)Gal(b1-4)Glc) of the same binder?
A: The value was -0.559.

Q: And the “glycan array binding signal (z-score)” value (Kdn(a2-3)Gal(b1-4)GlcNAc)?
A: Its value is -0.902.

Q: And the “glycan array binding signal (z-score)” value [5]?
A: Its value is -0.599.

Q: What about the “glycan array binding signal (z-score)” value (Kdn(a2-6)Gal(b1-4)GlcNAc) of the same binder?
A: The value was -0.724.

Q: What about the “glycan array binding signal (z-score)” value [6] of the same binder?
A: Its value is -0.211.

Q: What about the “glycan array binding signal (z-score)” value [7] of the same binder?
A: Its value is -0.615.

Q: And the “glycan array binding signal (z-score)” value (Man(a1-2)Man(a1-3)Man)?
A: Its value is -0.734.

Q: What about the “glycan array binding signal (z-score)” value [8] of the same binder?
A: The value was -0.74.

Q: And the “glycan array binding signal (z-score)” value [9]?
A: The value was 0.008.

Q: And the “glycan array binding signal (z-score)” value [10]?
A: Its value is -0.113.

Q: And the “glycan array binding signal (z-score)” value [11]?
A: The value was 0.403.

Q: And the “glycan array binding signal (z-score)” value [12]?
A: The value was 0.583.

Q: What about the “glycan array binding signal (z-score)” value [13] of the same binder?
A: Its value is -0.865.

Q: And the “glycan array binding signal (z-score)” value (Man(a1-3)[Man(a1-6)]Man)?
A: Its value is -0.621.

Q: What about the “glycan array binding signal (z-score)” value [14] of the same binder?
A: The value was -0.789.

Q: What about the “glycan array binding signal (z-score)” value [15] of the same binder?
A: Its value is -0.538.

Q: And the “glycan array binding signal (z-score)” value [16]?
A: Its value is -0.969.

Q: And the “glycan array binding signal (z-score)” value [17]?
A: Its value is 0.076.

Q: And the “glycan array binding signal (z-score)” value [18]?
A: Its value is -0.865.

Q: And the “glycan array binding signal (z-score)” value (Man(a1-6)Man)?
A: The value was -0.795.

Q: What about the “glycan array binding signal (z-score)” value (Man(b1-4)GlcNAc) of the same binder?
A: Its value is -0.49.

Q: And the “glycan array binding signal (z-score)” value (MurNAc(b1-4)GlcNAc)?
A: The value was -0.594.

Q: And the “glycan array binding signal (z-score)” value (Neu5Ac(a2-3)Gal)?
A: Its value is -0.848.

Q: What about the “glycan array binding signal (z-score)” value [19] of the same binder?
A: The value was -0.661.

Q: And the “glycan array binding signal (z-score)” value [20]?
A: The value was 0.281.

Q: What about the “glycan array binding signal (z-score)” value [21] of the same binder?
A: Its value is -0.481.

Q: What about the “glycan array binding signal (z-score)” value [22] of the same binder?
A: Its value is -0.396.

Q: What about the “glycan array binding signal (z-score)” value [23] of the same binder?
A: The value was -0.09.

Q: And the “glycan array binding signal (z-score)” value [24]?
A: The value was 0.633.

Q: And the “glycan array binding signal (z-score)” value [25]?
A: The value was 0.627.
